Some results were stated once for a whole list of compounds, not compound by compound. For some assays here: At least one read-out could not be matched to a standard name with certainty. Some compounds share one range, which may span the group rather than tell each member.
How the values were obtained:
Format in all cases: in vivo
Adoxophyes orana = assay: Test Example 2: Adoxophyes orana, artificial diet/filter paper test; details: 500 ppm test solution, 1 mL; first-instar larvae; after 7 days
Plutella xylostella = assay: Test Example 9: Plutella xylostella, spray on cabbage; details: 500 ppm test solution, 20 mL sprayed on cabbage; second-instar larvae; 25° C.; after 5 days
Musca domestica = assay: Test Example 5: Musca domestica, filter paper with sucrose bait; details: 500 ppm test solution, 0.7 ml on filter paper; female imagoes; after 24 hours
Culex pipiens pallens = assay: Test Example 7: Culex pipiens pallens larvae in treated water; details: active ingredient concentration 3.5 ppm in water; last-instar larvae; after 1 day
Spodoptera litura = assay: Test Example 1: Spodoptera litura, artificial diet/filter paper test; details: 500 ppm test solution, 2 mL; fourth-instar larvae; after 6 days
Blattalla germanica = assay: Test Example 6: Blattalla germanica, filter paper with sucrose bait; details: 500 ppm test solution, 0.7 ml on filter paper; male imagoes; after 6 days
Aphis gossypii = assay: Test Example 3: Aphis gossypii, spray on cucumber leaves; details: 500 ppm test solution, 20 mL sprayed on cucumber; imagoes and larvae; after 6 days

| SMILES | index in terms of death rate (Adoxophyes orana) | index in terms of death rate (Plutella xylostella) | index in terms of death rate (Musca domestica) | index in terms of death rate (Culex pipiens pallens) | index in terms of death rate (Spodoptera litura) | index in terms of death rate (Blattalla germanica) | index in terms of survival rate (Aphis gossypii) |
| --- | --- | --- | --- | --- | --- | --- | --- |
| CC(=COc1ccc(C)cc1)C(=Nc1ccc(C)cc1)Oc1ccc(C)cc1 [Compound 211, 4-methylphenyl 2-methyl-N-(4-methylphenyl)-3-(4-methylphenyloxy)-2-propenimidate] | 3 (3: 80 to 99%) | 3 (3: 80 to 99%) | 3 (3: 70 to 99%) | 4 (4: 91 to 100%) | 3 (3: 80 to 99%) | 4 (4: 100%) | 3 (3: 1 to 10%) |
| CC(=COc1ccc(C)cc1)C(=Nc1ccc(C)cc1)Oc1ccc(Cl)cc1 [Compound 218, 4-chlorophenyl 2-methyl-N-(4-methylphenyl)-3-(4-methylphenyloxy)-2-propenimidate] | 3 (3: 80 to 99%) | 3 (3: 80 to 99%) | 3 (3: 70 to 99%) | 4 (4: 91 to 100%) | 3 (3: 80 to 99%) | 4 (4: 100%) | 3 (3: 1 to 10%) |
| COc1ccccc1OC(=Nc1ccc(C)cc1)C(C)=COc1ccc(C)cc1 [Compound 219, 2-methoxyphenyl 2-methyl-N-(4-methylphenyl)-3-(4-methylphenyloxy)-2-propenimidate] | 3 (3: 80 to 99%) | 3 (3: 80 to 99%) | 3 (3: 70 to 99%) | 4 (4: 91 to 100%) | 3 (3: 80 to 99%) |  | 3 (3: 1 to 10%) |
| COc1cccc(OC(=Nc2ccc(C)cc2)C(C)=COc2ccc(C)cc2)c1 [Compound 220, 3-methoxyphenyl 2-methyl-N-(4-methylphenyl)-3-(4-methylphenyloxy)-2-propenimidate] | 3 (3: 80 to 99%) | 3 (3: 80 to 99%) | 3 (3: 70 to 99%) | 4 (4: 91 to 100%) | 3 (3: 80 to 99%) | 4 (4: 100%) | 3 (3: 1 to 10%) |
| COc1ccc(OC(=Nc2ccc(C)cc2)C(C)=COc2ccc(C)cc2)cc1 [Compound 221, 4-methoxyphenyl 2-methyl-N-(4-methylphenyl)-3-(4-methylphenyloxy)-2-propenimidate] | 3 (3: 80 to 99%) | 3 (3: 80 to 99%) | 3 (3: 70 to 99%) | 4 (4: 91 to 100%) | 3 (3: 80 to 99%) |  | 3 (3: 1 to 10%) |
| COc1ccc(N=C(Oc2cccc(OC)c2)C(C)=COc2ccc(C)cc2)cc1 [Compound 227, 3-methoxyphenyl N-(4-methoxyphenyl)-2-methyl-3-(4-methylphenyloxy)-2-propenimidate] | 3 (3: 80 to 99%) | 3 (3: 80 to 99%) | 3 (3: 70 to 99%) | 4 (4: 91 to 100%) | 3 (3: 80 to 99%) |  | 3 (3: 1 to 10%) |
| COc1cccc(OC(=Nc2ccccc2)C(C)=COc2ccccc2OC)c1 [Compound 236, 3-methoxyphenyl 3-(2-methoxyphenyloxy)-2-methyl-N-phenyl-2-propenimidate] | 3 (3: 80 to 99%) | 3 (3: 80 to 99%) | 3 (3: 70 to 99%) | 4 (4: 91 to 100%) | 3 (3: 80 to 99%) | 4 (4: 100%) |  |
| COc1ccccc1OC=C(C)C(=Nc1ccccc1)Oc1cc(C)cc(C)c1 [Compound 238, 3,5-dimethylphenyl 3-(2-methoxyphenyloxy)-2-methyl-N-phenyl-2-propenimidate] | 3 (3: 80 to 99%) | 3 (3: 80 to 99%) |  | 4 (4: 91 to 100%) | 3 (3: 80 to 99%) | 4 (4: 100%) |  |
| COc1cccc(OC(=Nc2ccc(C)cc2)C(C)=COc2ccccc2OC)c1 [Compound 242, 3-methoxyphenyl 3-(2-methoxyphenyloxy)-2-methyl-N-(4-methylphenyl)-2-propenimidate] | 3 (3: 80 to 99%) | 3 (3: 80 to 99%) | 3 (3: 70 to 99%) | 4 (4: 91 to 100%) | 3 (3: 80 to 99%) |  | 3 (3: 1 to 10%) |
| COc1cccc(OC(=Nc2ccc(C)c(C)c2)C(C)=COc2ccccc2OC)c1 [Compound 254, 3-methoxyphenyl N-(3,4-dimethylphenyl)-3-(2-methoxyphenyloxy)-2-methyl-2-propenimidate] | 3 (3: 80 to 99%) | 3 (3: 80 to 99%) | 3 (3: 70 to 99%) | 4 (4: 91 to 100%) | 3 (3: 80 to 99%) |  | 3 (3: 1 to 10%) |
| COc1ccc(OC=C(C)C(=Nc2ccc(C)cc2)Oc2cccc(OC)c2)cc1 [Compound 273, 3-methoxyphenyl 3-(4-methoxyphenyloxy)-2-methyl-N-(4-methylphenyl)-2-propenimidate] | 3 (3: 80 to 99%) | 3 (3: 80 to 99%) | 3 (3: 70 to 99%) | 4 (4: 91 to 100%) | 3 (3: 80 to 99%) |  | 3 (3: 1 to 10%) |
| CCOc1cccc(OC(=Nc2ccc(C)cc2)C(C)=COc2ccc(OC)cc2)c1 [Compound 274, 3-ethoxyphenyl 3-(4-methoxyphenyloxy)-2-methyl-N-(4-methylphenyl)-2-propenimidate] | 3 (3: 80 to 99%) | 3 (3: 80 to 99%) | 3 (3: 70 to 99%) | 4 (4: 91 to 100%) | 3 (3: 80 to 99%) |  | 3 (3: 1 to 10%) |
| COc1ccc(N=C(Oc2ccccc2)C(C)=COc2ccc(OC)cc2)cc1 [Compound 276, phenyl N-(4-methoxyphenyl)-3-(4-methoxyphenyloxy)-2-methyl-2-propenimidate] | 3 (3: 80 to 99%) | 3 (3: 80 to 99%) | 3 (3: 70 to 99%) | 4 (4: 91 to 100%) | 3 (3: 80 to 99%) |  | 3 (3: 1 to 10%) |
| COc1ccc(N=C(Oc2cccc(OC)c2)C(C)=COc2ccc(OC)cc2)cc1 [Compound 279, 3-methoxyphenyl N-(4-methoxyphenyl)-3-(4-methoxyphenyloxy)-2-methyl-2-propenimidate] | 3 (3: 80 to 99%) | 3 (3: 80 to 99%) | 3 (3: 70 to 99%) | 4 (4: 91 to 100%) | 3 (3: 80 to 99%) |  | 3 (3: 1 to 10%) |
| CCOc1cccc(OC(=Nc2ccc(OC)cc2)C(C)=COc2ccc(OC)cc2)c1 [Compound 280, 3-ethoxyphenyl N-(4-methoxyphenyl)-3-(4-methoxyphenyloxy)-2-methyl-2-propenimidate] | 3 (3: 80 to 99%) | 3 (3: 80 to 99%) | 3 (3: 70 to 99%) | 4 (4: 91 to 100%) | 3 (3: 80 to 99%) |  | 3 (3: 1 to 10%) |
| COc1ccc(N=C(Oc2cc(C)cc(C)c2)C(C)=COc2ccc(OC)cc2)cc1 [Compound 281, 3,5-dimethylphenyl N-(4-methoxyphenyl)-3-(4-methoxyphenyloxy)-2-methyl-2-propenimidate] | 3 (3: 80 to 99%) | 3 (3: 80 to 99%) | 3 (3: 70 to 99%) | 4 (4: 91 to 100%) | 3 (3: 80 to 99%) |  | 3 (3: 1 to 10%) |
| COc1ccc(OC=C(C)C(=Nc2ccc(C)c(C)c2)Oc2cccc(OC)c2)cc1 [Compound 285, 3-methoxyphenyl N-(3,4-dimethylphenyl)-3-(4-methoxyphenyloxy)-2-methyl-2-propenimidate] | 3 (3: 80 to 99%) | 3 (3: 80 to 99%) | 3 (3: 70 to 99%) | 4 (4: 91 to 100%) | 3 (3: 80 to 99%) |  | 3 (3: 1 to 10%) |
| CCOc1cccc(OC(=Nc2ccc(C)c(C)c2)C(C)=COc2ccc(OC)cc2)c1 [Compound 286, 3-ethoxyphenyl N-(3,4-dimethylphenyl)-3-(4-methoxyphenyloxy)-2-methyl-2-propenimidate] | 3 (3: 80 to 99%) | 3 (3: 80 to 99%) | 3 (3: 70 to 99%) | 4 (4: 91 to 100%) | 3 (3: 80 to 99%) |  | 3 (3: 1 to 10%) |
